# From PubChem BioAssay AID1671190 (National Center for Advancing Translational Sciences (NCATS), 2021)
# Chains of the proteins cited; added tags and fusions are not shown. Lines headed by an entry give the natural chain unless they say otherwise; changes in a name come on top.
# UniProt P18054: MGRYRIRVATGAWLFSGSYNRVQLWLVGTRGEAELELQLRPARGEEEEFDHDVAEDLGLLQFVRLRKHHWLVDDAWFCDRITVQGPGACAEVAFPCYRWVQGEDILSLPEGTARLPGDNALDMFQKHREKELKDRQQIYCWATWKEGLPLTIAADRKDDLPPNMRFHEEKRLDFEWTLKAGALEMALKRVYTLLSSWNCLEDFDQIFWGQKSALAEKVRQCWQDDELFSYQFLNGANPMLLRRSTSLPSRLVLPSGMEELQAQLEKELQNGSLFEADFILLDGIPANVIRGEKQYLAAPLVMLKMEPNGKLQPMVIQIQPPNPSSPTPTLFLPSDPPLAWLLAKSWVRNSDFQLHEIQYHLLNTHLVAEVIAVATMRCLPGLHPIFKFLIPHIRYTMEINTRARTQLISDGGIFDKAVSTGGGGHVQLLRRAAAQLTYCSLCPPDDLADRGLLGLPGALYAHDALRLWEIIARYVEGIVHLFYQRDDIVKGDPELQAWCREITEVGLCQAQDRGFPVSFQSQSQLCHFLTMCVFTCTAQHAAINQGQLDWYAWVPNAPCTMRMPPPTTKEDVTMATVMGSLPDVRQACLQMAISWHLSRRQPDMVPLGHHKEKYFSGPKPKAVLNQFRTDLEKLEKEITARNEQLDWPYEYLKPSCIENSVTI
# About 6,100 (1.1%) of roughly 580,000 compounds were called active. This list was built around the results that the source calls inconclusive (neither active nor inactive); the mix of calls is not that of the screen. Calls come from the whole dose curve; as a rule, active = well fitted inhibition curve with a large enough effect; inconclusive = small, poorly fitted or top-dose-only effect, or another doubt; inactive = no such curve, though single readings can be large or run the other way. Potencies beside an inconclusive call are fits to weak or partial responses and may not hold up.
# Target: Polyunsaturated fatty acid lipoxygenase ALOX12 (Homo sapiens) (UniProt P18054)
# Assay: Primary qHTS assay for inhibitors of human arachidonate 12S-lipoxygenase (ALOX12): Round 2
# Details: purified 12hLO, xylenol orange hydroperoxide absorbance; series mostly up to 108 µM
# Summary of the method: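 Purified human 12hLO (150 nM final) in 25 mM Hepes, 0.01% Triton X-100, pH 7.0 was preincubated 15 min at room temperature with compound. Then 40 uM arachidonic acid was added, 30 min. Hydroperoxide was read by Fe-XO absorbance ratio 573/405 nm.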
# Potency is the fitted concentration of half-maximal effect.
row,SMILES,Potency
1,O=C(Cn1c(=O)cc(C(=O)N2CCCC2)c2ccccc21)Nc1ccccc1F,inactive
2,COC(=O)c1ccc(/C=N/Nc2nc(C)c(C)s2)cc1,inactive
3,O=C(Nc1ccc(F)c(Cl)c1)c1ccccc1,"inconclusive: 100 µM [inhibitor, partial curve, poor fit]"
4,Clc1ccc(OCc2ccc(-c3nc(-c4ccc(Br)o4)no3)o2)cc1,"inconclusive: 17.8 µM [inhibitor, full curve]"
5,COc1ccc(C(=O)N2CCc3[nH]nc(-c4ccccc4)c3C2)cc1,inactive
6,CC1(C)CC(=O)C2=C(C1)OC(N)=C(C#N)C2C#Cc1ccccc1 (stereo not given),"inconclusive: 70.8 µM [inhibitor, partial curve, poor fit]"
7,Cc1cccc(CNC(=O)CN2CC3CC(C2)[C@H]2CCCC(=O)N2C3)c1 (stereo not given in full),inactive
8,O=C(/C=C/c1ccccc1)Nc1cccc2c1CCCC2,"inconclusive: 31.6 µM [inhibitor, partial curve, poor fit]"
9,Cc1nc(N2CCN(C(=O)c3cccs3)CC2)c2c3c(sc2n1)CCCC3,"inconclusive: 50.1 µM [inhibitor, partial curve, poor fit]"
10,CC(=O)Nc1c(-c2cc(=O)oc3c(C)c(C)ccc23)oc2ccccc12,"inconclusive: 70.8 µM [inhibitor, partial curve, poor fit]"
11,Cc1nc(NC(=O)COC(=O)/C=C/c2ccco2)c(Cl)cc1Cl,"inconclusive: 44.7 µM [inhibitor, partial curve, poor fit]"
12,Cc1ccc(NC(=O)CSc2ncn[nH]2)cc1C,"inconclusive: 35.5 µM [inhibitor, partial curve, poor fit]"
13,CC1CCc2c(sc(/N=C/c3cccnc3)c2C(N)=O)C1 (stereo not given),active: 31.6 µM
14,CSc1ncccc1C(=O)Nc1ccc2nc(C)sc2c1,inactive
15,CN(C)/C=N/c1nc2nccc(-c3cccc(Cl)c3)n2n1,inactive
16,O=C(Nc1ccc2oc(-c3ccccc3F)nc2c1)c1ccc([N+](=O)[O-])o1,inactive
17,Cn1c(=O)oc2cc(S(=O)(=O)NC(Cc3ccccc3)C(=O)NCc3ccc(F)cc3)ccc21 (stereo not given),"inconclusive: 158 µM [inhibitor, single point]"
18,COc1ccc(CCNC(=O)c2ccc(Cl)nc2)cc1,"inconclusive: 100 µM [inhibitor, single point]"
19,CCN(Cc1ccc(Br)s1)C(=O)Cn1nnc(-c2cccc(Cl)c2)n1,"inconclusive: 7.08 µM [inhibitor, partial curve, poor fit]"
20,N#Cc1cc([N+](=O)[O-])ccc1Oc1ccc(-c2nnco2)cc1,"inconclusive: 89.1 µM [inhibitor, partial curve, poor fit]"
21,Cc1cc2nc3ccc(N(C)C)cc3nc2cc1N,"inconclusive: 1 µM [inhibitor, full curve, poor fit]"
22,O=C(C1CCCCC1)N1C[C@@H](n2cc(-c3ccc(F)cc3)nn2)[C@H](O)C[C@@H]1c1ccc(Cl)cc1,inactive
23,c1cc(-c2ccco2)cc(-c2nc(C3CCOC3)no2)c1 (stereo not given),"inconclusive: 20 µM [inhibitor, full curve]"

# Part of the list above in order of molecular weight, ascending:
row,SMILES,Potency
21,Cc1cc2nc3ccc(N(C)C)cc3nc2cc1N,"inconclusive: 1 µM [inhibitor, full curve, poor fit]"
2,COC(=O)c1ccc(/C=N/Nc2nc(C)c(C)s2)cc1,inactive
10,CC(=O)Nc1c(-c2cc(=O)oc3c(C)c(C)ccc23)oc2ccccc12,"inconclusive: 70.8 µM [inhibitor, partial curve, poor fit]"
19,CCN(Cc1ccc(Br)s1)C(=O)Cn1nnc(-c2cccc(Cl)c2)n1,"inconclusive: 7.08 µM [inhibitor, partial curve, poor fit]"

# (next part)

row,SMILES,Potency
1,O=C(O)c1ccc2cccnc2n1,"inconclusive: 25.1 µM [inhibitor, partial curve, poor fit]"
2,COCC1CN(C(C)=O)CC12CCN(C(=O)CC1=CCCCC1)CC2 (stereo not given),"inconclusive: 6.31 µM [inhibitor, full curve, poor fit]"
3,CCc1ccc(OCC(=O)OCC(=O)c2cc3ccccc3o2)cc1,inactive
4,CCOC(=O)C1CCN(CCCSc2ccc(C)cc2)CC1,"inconclusive: 50.1 µM [inhibitor, partial curve, poor fit]"
5,Cc1cc(Nc2ccc(C(C)C)cc2)n2ncnc2n1,"inconclusive: 15.8 µM [inhibitor, partial curve, poor fit]"
6,Cc1ccc(Cn2cc(CN(C)C3CN(Cc4cn(Cc5ccc(C)cc5)nn4)S(=O)(=O)C3)nn2)cc1 (stereo not given),"inconclusive: 31.6 µM [inhibitor, partial curve, poor fit]"
7,CCC(c1nnnn1C1CCCCC1)N(Cc1ccco1)Cc1cc2ccc(OC)cc2[nH]c1=O (stereo not given),"inconclusive: 44.7 µM [inhibitor, partial curve, poor fit]"
8,COc1ccc(C(=O)CC(=O)C(=O)Nc2cccc(F)c2)cc1,"inconclusive: 0.891 µM [inhibitor, partial curve, poor fit]"
9,COC(=O)c1scc(C)c1NC(=O)/C=C/C(=O)O,"inconclusive: 31.6 µM [inhibitor, single point]"
10,Cc1ccc(O)c(C(=O)/C=C/c2ccc3c(c2)OCCO3)c1,inactive
11,O=C(CCc1ccnc(N2CCCC2)c1)N1CCN(c2cccc(Cl)c2)CC1,inactive
12,CN(CCc1ccccn1)[C@@H]1[C@H](O)[C@H](CO)O[C@@H]1CNC(=O)Nc1ccc(OC(F)(F)F)cc1,"inconclusive: 15.8 µM [inhibitor, full curve, poor fit]"
13,Fc1ccc2c(c1)nc1n2[C@@H](CNC2CCCCC2)COC1,inactive
14,S=C(c1nc2ccccc2[nH]1)N1CCOCC1,inactive
15,CCCNC(=O)CNC(=O)CCC1CCCC1,inactive
16,O=C(O)c1ccc(N2CC3CC(C2)c2cccc(=O)n2C3)c(NC(=S)Nc2ccc(Br)cc2)c1 (stereo not given),active: 39.8 µM
17,Cc1ccc(-c2nnn(C(C)C(=O)Nc3ccc(C#N)cc3)n2)cc1 (stereo not given),inactive
18,CS(=O)(=O)c1ccc(OCC2(CNC(=O)Nc3cccnc3)C[C@@H](O)[C@@H](O)C2)cc1 (stereo not given in full),"inconclusive: 7.94 µM [inhibitor, full curve, poor fit]"
19,Nc1nc(N)c(N=O)c(Nc2cccc(Cl)c2)n1,"inconclusive: 89.1 µM [inhibitor, single point]"
20,Cc1ccn2c(C(=O)N[C@H](Cc3ccccn3)C3CC(O)C3)nnc2n1 (stereo not given in full),inactive
21,Cc1cc(C(F)(F)F)c2sc(N)nc2n1,inactive
22,COc1ccc(Oc2c(O)c3ccccc3n(C)c2=O)cc1,"inconclusive: 15.8 µM [inhibitor, full curve, poor fit]"
